Measured values: patent publication US20230233707A1 (University of Washington, published 2023)

Target: T1, Fc from human IgG1 (human, UniProt P01857-1 104-330 = IgG part)
T1 construct: domain: Fc; also called human IgG1 Fc; IgG1 Fc protein
Test: SEC, design mixed with human IgG1 Fc, overlaid on the single components [panel B]
Excerpt: Synthetic genes encoding designed protein sequences appended with a C-terminal 6× histidine tag were expressed in E. coli. Designs were purified from clarified lysates using immobilized metal affinity chromatography (IMAC), and size exclusion chromatography (SEC) was used as a final purification step. […] Designs were then combined with human IgG1 Fc, and the assemblies were re-purified via SEC. Eight of these AbC-forming designs assembled with Fc into a species that eluted as a monodisperse peak at a volume consistent with the target nanoparticle molecular weight (FIG. 2a-b; 3 D2 dihedral, 2 T32 tetrahedral, 1 O42 octahedral, and 2 I52 icosahedral AbCs). For the i52.6 design, adding 100 mM L-arginine to the assembly buffer prevented aggregation after combining with Fc; all other designs readily self-assembled in Tris-buffered saline.
Designs that produced monodisperse SEC peaks around their expected retention volume were combined with Fc from human IgG1. Fc was produced recombinantly either using standard methods for expression in HEK293T cells or in E. coli (43). Cage components were incubated at 4° C. for at minimum 30 minutes. […] Fc-binding and cage formation were confirmed via SEC; earlier shifts in retention time (compared to either component run alone) show the formation of a larger structure. NS-EM was used as previously described to confirm the structures of designs that passed these steps.

Row | Binder | binding result
1 | t32.4 (designed binder, Homotrimer for T32 tetrahedral cages; C-terminal GS linker and 6xHis tag; also called t.4_r1; t32.4 AbC-forming design) MFNKSQQSAFYLILNMPNLNEAQRNGFIQSLKDDPSKSEVVAGEAAIEAARNALKKGSPETAREAVRLALELVQEAERQARKTGSTERLIAAAKLAIEVARVALKVGSPETAREAVRTALELVQELIRQARKTGSKEVLEEAAKLALEVAKVAAEVGSPETAARAVATAVEALKEAGASEDEIAEIVARVISEVIRILKESGSEYKVICRAVARIVAEIVEALKRSGTSEDEIAEIVARVISEVIRTLKESGSDYLIICVCVAIIVAEIVEALKRSGTSEDEIAEIVARVISEVIRTLKESGSSYEVIKECVQIIVLAIILALMKSGTEVEEILLILLRVKTEVRRTLKESGSLEHHHHHH | binds
2 | t32.8 (designed binder, Homotrimer for T32 tetrahedral cages; also called t32.8 AbC-forming design) MFNKDQQSAFYEVLNMPNLNEAQRNGFIQSLKDDPSQSLKILIKAAAGGDSELEEVAKRIVKELAEQGRSEKEAAKEAAELIERITRAAGGNSDLIELAVRIVKILEEQGRSPSEAAKEAVEAIEAIVRAAGGDSEAIKVAAEIAKTIITQKESGSEYKEICRTVARIVAEIVEKLKRNGASEDEIAEIVAAIIAAVILTLKLSGSDYLIICVCVAIIVAEIVEALKRSGTSEDEIAEIVARVISAVIRVLKESGSSYEVIKECVQIIVLAIILALMKSGTEVEEILLILLRVKTEVRRTLKESGSLEHHHHHH | binds
3 | o42.1 (designed binder, Homotetramer for O42 octahedral cages; C-terminal GS linker and 6xHis tag; also called octahedral o42.1 AbC-forming design) MFNKDQQSAFYEILNMPNLNEALRNGFIQLLKDDPSKSTVILTAAKVAAELSEKIRTLKESGSSYEQIAETVAKAVAKLVEKLKRNGVSEDEIALAVALIISAVIQTLKESGSSYEVIAEIVARIVAEIVEALKRSGTSEDEIAEIVARVISEVIRTLKESGSSYEVIAEIVARIVAEIVEALKRSGTSEDEIAKIVARVIAEVLRTLKESGSSEEVIKEIVARIITEIKEALKRSGTSEDEIELITLMIEAALEIAKLKSSGSEYEEICEDVARRIAELVEKLKRDGTSAVEIAKIVAAIISAVIAMLKASGSSYEVICECVARIVAEIVEALKRSGTSAAIIALIVALVISEVIRTLKESGSSFEVILECVIRIVLEIIEALKRSGTSEQDVMLIVMAVLLVVLATLQLSGSLEHHHHHH | binds
